Results taken from PubChem BioAssay (NCATS).
“And” between values parts separate entries of the source, which are not always exact repeats. Equal values may be shown once. The list shows a part of the results. These are further read-outs of the screen, such as a control signal, another cell line or another target. No call is given for them. The list favours compounds with an active or inconclusive main result. For some assays here: Words in brackets tell the shape of the fitted curve; partial curves, single points and poor fits give uncertain potencies.

Columns and labels:
[1] = qHTS Assay for Inhibitors of PDE-IV (AID 607); conditions: HEK293 ACTOne CNG channel cells, membrane potential fluorescence; measured here: parental cell counter-screen
How it was run: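 ACTOne HEK293 cells carry a modified cAMP-gated CNG channel and express endogenous PDE4; plated 1000 cells/well, compounds up to 22.9 uM final. Membrane-potential dye fluorescence (ex 535/em 590) was read; parental cells received 10 uM forskolin + 100 uM RO 20-1724.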

[2] = Validation of Assay for Modulators of Lamin A Splicing (AID 1459); conditions: Lamin A splicing dual RFP/GFP fluorescence reporter, ratio
How it was run: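 S3 HeLa cells stably expressing a lamin A-EGFP splicing minigene and DsRed2 were seeded at 600 cells/well in Opti-MEM with 2% FBS, pin-dosed, and incubated 48 hrs at 37 °C, 5% CO2. Laser-scanning cytometry (488 nm) gave GFP/RFP total intensity ratio.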

[3] = qHTS Assay for Lipid Storage Modulators (AID 1519); conditions: Drosophila S3 cells, BODIPY lipid droplet/cell ratio, laser cytometry, cells loaded with oleic acid
How it was run: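 Cells seeded at 5,000 per well were treated with compounds over a concentration series and loaded with oleic acid (400 uM, as added). Lipid droplet fluorescence (488 nm excitation, 500-530 nm channel) was read by laser-scanning cytometry and normalized to 20 uM Triacsin C.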

[4] = qHTS Assay for Modulators of Human Peripheral Myelin Protein 22 (PMP22) Expression/Activity (AID 1967); conditions: Cell-based PMP22 reporter, dual-color luciferase ratio
How it was run: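 MSC80 mouse Schwann cells stably carrying Pmp22 promoter–green click beetle luciferase plus EF-alpha–red luciferase control were dosed for 24h at 37 °C. Dual-colour luminescence was filter-overlap corrected; %Activity came from green/red ratio versus untreated cells.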

[5] = qHTS for identification of novel therapeutic agents for treatment of microphthalmiaassociated transcription factor (MiT) renal cell carcinoma (RCC) (AID 1963991); conditions: CellTiter-Glo, 48 h; for z-score: stronger effect = lower value
How it was run: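 Three TFE3-fusion RCC cell lines (UOK109, UOK124, UOK145), 500 cells/well, were exposed to the 1912-compound MIPE 4.0 library for 48 hours at 37 C. Viability was read by CellTiter-Glo luminescence, normalised to DMSO (100%) and empty wells (0%), with 11-concentration curve fits.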

[6] = qHTS assay for small molecule agonists of retinoid X receptor alpha signaling (AID 588544); conditions: HEK293T RXRa-UAS-bla, beta-lactamase reporter, 18 h; 530 nm emission
[7] = qHTS Validation Assay to Find Inhibitors of Chronic Active B-Cell Receptor Signaling (AID 485345); conditions: ABC-DLBCL cells, chronic BCR signaling reporter
How it was run: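 TMD8 ABC-DLBCL cells with dox-inducible green luciferase–IκBα fusion and red native luciferase; compounds 46 uM–3 nM, 4 h at 37C with doxycycline in 0.5% FBS IMDM. Green/red ratio normalized to basal and 10 uM MG-132.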

[8] = Nrf2 qHTS screen for inhibitors: Validation (AID 493153); conditions: A549 ARE-Fluc reporter, 18-24 h; AC50: CellTiter-Fluor fluorescence read, measured here: cytotoxicity CellTiter-Fluor AC50; viability change: measured here: cytotoxicity max response
How it was run: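 Dose-response validation uses reporter A549 cells with firefly luciferase under an antioxidant response element. Compounds stay on cells 18-24 h at 37°C, and luminescence indicates Nrf2-driven transcription.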

[9] = measured here: cell count channel max response
[10] = measured here: lipid (BODIPY) channel AC50
[11] = measured here: lipid channel max response
[12] = measured here: green reporter channel AC50, mouse Pmp22 promoter in mouse Schwann cells
[13] = measured here: red reporter channel AC50, EF-alpha promoter control reporter in MSC80 mouse Schwann cells

SMILES | AC50 [1] | AC50 ([2]; measured here: GFP channel) | AC50 ([2]; measured here: RFP channel) | max response [3, 9] | AC50 ([3]; measured here: cell number channel AC50) | AC50 [3, 10] | max response [3, 11] | AC50 [4, 12] | AC50 [4, 13] | z-score ([5]; TFE3-RCC UOK109 viability, measured here: UOK109 Z-AUC) | z-score ([5]; TFE3-RCC viability, measured here: UOK124 Z-AUC) | AC50 ([5]; TFE3-RCC viability, measured here: UOK124 cell viability) | z-score ([5]; TFE3-RCC viability, measured here: UOK145 Z-AUC) | AC50 ([5]; TFE3-RCC viability, measured here: UOK145 cell viability) | max response [6] [%] | AC50 ([7]; measured here: CBG/CBR ratio read-out) | AC50 ([7]; measured here: CBR control luciferase (viability counter)) | AC50 [8] | viability change [8] [%]
c1ccc(CCCN2CCN(CCOC(c3ccccc3)c3ccccc3)CC2)cc1 | 15.8 µM [rising, partial curve, poor fit] | 35.5 µM [falling, single point] | 25.1 µM [falling, single point] | 60.4% and -102% | 14.1 µM [rising, partial curve, poor fit] | 15.8 µM [rising, partial curve, poor fit] | 71.3% and -107% | 42.6 µM [falling, full curve] | 37.9 µM [falling, full curve] | 0.0714 | -0.248 | 20.9 µM [falling, partial curve] | -0.0424 | 20.9 µM [falling, partial curve, poor fit] | – | – | – | – | –
O=C(O)C1C2CCC(O2)C1C(=O)O (configuration not stated) | – | 10 µM [rising, partial curve] | 10 µM [rising, partial curve] | -45.2% | – | 22.4 µM [falling, full curve, poor fit] | -43.5% | – | 47.8 µM [falling, partial curve] | – | – | – | – | – | -27.6 | – | – | – | –
Cc1c2ccncc2c(C)c2c1[nH]c1ccccc12 | 1.26 µM [falling, full curve, poor fit] | 11.2 µM [falling, partial curve] | 12.6 µM [falling, partial curve] | -12.4% and 52.1% | – | – | -46% and 50.1% | 53.6 µM [falling, partial curve, poor fit] | 7.57 µM [falling, partial curve] | – | – | – | – | – | – | 29.1 µM [falling, single point] | 2.06 µM [falling, full curve] | 10.3 µM [falling, partial curve] | -33.9
